A: 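Tryptophan-tRNA ligase, Mycobacterium tuberculosis (UniProt P9WFT3). Enzyme assay of tryptophanyl-tRNA synthetase; the read-out is not stated. Tested at 10 µM. Higher most likely means stronger inhibition; the record gives no direction and few retests gave an IC50. Size under these conditions: about 65,000 compounds, about 64 of them at 50% or above in at least one test.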
B: 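Protease assay of ClpP1P2, read by the AMC dye that it sets free. Target: ClpP1P2, Mycobacterium tuberculosis (UniProt P9WPC5 and UniProt P9WPC3). Tested at 50 µM. Higher reads as stronger inhibition, judged from the few compounds that gave an IC50. Most other retested compounds had strongly negative values. About 69,000 compounds were tested under these conditions; 0.015% (about 10) showed 50% or more at least once.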
C: 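Enzyme assay of the thioesterase domain of polyketide synthase 13; the read-out is not stated. Target: Polyketide synthase Pks13, Mycobacterium tuberculosis (UniProt I6X8D2). Compounds at 30 µM. The record gives no direction; the compounds picked for IC50 retests had high values, so higher reads as stronger inhibition. Of about 67,000 compounds tested this way, about 300 (0.46%) reached 50% or more in at least one test.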
D: 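Lysine-tRNA ligase, Plasmodium falciparum 3D7 (UniProt Q8IDJ8). Enzyme assay of the cytosolic lysyl-tRNA synthetase in 384-well plates, read by luminescence. Compounds at 30 µM. Direction is inferred from only a few compounds that gave an IC50; most scored high, so higher reads as stronger inhibition. About 69,000 compounds were tested under these conditions; 0.071% (about 49) showed 50% or more at least once.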

By UniProt entry, the sequences of proteins in these tests, tags left out. Residues count along the entry.
UniProt P9WFT3, whole entry: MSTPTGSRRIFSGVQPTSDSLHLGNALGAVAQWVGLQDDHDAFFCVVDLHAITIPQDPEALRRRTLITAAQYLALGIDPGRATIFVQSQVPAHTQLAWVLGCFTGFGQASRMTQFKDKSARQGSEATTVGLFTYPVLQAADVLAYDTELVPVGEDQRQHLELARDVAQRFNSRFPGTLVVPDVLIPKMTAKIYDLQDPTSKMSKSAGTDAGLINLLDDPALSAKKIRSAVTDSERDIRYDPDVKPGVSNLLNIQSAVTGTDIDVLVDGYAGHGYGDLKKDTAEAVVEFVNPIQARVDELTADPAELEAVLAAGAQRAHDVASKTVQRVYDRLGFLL
UniProt P9WPC5, whole entry: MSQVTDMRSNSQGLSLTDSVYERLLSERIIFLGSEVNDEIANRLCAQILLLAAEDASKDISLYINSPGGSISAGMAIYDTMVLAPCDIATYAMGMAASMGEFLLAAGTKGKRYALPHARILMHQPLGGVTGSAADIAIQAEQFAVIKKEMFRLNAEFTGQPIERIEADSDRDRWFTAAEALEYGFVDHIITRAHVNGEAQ
UniProt P9WPC3, whole entry partner: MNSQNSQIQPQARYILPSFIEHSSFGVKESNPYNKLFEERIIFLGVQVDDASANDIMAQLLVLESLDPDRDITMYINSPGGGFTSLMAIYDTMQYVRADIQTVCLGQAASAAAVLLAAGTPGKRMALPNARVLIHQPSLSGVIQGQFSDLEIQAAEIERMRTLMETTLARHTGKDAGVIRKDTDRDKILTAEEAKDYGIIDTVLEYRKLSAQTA
UniProt I6X8D2, whole entry: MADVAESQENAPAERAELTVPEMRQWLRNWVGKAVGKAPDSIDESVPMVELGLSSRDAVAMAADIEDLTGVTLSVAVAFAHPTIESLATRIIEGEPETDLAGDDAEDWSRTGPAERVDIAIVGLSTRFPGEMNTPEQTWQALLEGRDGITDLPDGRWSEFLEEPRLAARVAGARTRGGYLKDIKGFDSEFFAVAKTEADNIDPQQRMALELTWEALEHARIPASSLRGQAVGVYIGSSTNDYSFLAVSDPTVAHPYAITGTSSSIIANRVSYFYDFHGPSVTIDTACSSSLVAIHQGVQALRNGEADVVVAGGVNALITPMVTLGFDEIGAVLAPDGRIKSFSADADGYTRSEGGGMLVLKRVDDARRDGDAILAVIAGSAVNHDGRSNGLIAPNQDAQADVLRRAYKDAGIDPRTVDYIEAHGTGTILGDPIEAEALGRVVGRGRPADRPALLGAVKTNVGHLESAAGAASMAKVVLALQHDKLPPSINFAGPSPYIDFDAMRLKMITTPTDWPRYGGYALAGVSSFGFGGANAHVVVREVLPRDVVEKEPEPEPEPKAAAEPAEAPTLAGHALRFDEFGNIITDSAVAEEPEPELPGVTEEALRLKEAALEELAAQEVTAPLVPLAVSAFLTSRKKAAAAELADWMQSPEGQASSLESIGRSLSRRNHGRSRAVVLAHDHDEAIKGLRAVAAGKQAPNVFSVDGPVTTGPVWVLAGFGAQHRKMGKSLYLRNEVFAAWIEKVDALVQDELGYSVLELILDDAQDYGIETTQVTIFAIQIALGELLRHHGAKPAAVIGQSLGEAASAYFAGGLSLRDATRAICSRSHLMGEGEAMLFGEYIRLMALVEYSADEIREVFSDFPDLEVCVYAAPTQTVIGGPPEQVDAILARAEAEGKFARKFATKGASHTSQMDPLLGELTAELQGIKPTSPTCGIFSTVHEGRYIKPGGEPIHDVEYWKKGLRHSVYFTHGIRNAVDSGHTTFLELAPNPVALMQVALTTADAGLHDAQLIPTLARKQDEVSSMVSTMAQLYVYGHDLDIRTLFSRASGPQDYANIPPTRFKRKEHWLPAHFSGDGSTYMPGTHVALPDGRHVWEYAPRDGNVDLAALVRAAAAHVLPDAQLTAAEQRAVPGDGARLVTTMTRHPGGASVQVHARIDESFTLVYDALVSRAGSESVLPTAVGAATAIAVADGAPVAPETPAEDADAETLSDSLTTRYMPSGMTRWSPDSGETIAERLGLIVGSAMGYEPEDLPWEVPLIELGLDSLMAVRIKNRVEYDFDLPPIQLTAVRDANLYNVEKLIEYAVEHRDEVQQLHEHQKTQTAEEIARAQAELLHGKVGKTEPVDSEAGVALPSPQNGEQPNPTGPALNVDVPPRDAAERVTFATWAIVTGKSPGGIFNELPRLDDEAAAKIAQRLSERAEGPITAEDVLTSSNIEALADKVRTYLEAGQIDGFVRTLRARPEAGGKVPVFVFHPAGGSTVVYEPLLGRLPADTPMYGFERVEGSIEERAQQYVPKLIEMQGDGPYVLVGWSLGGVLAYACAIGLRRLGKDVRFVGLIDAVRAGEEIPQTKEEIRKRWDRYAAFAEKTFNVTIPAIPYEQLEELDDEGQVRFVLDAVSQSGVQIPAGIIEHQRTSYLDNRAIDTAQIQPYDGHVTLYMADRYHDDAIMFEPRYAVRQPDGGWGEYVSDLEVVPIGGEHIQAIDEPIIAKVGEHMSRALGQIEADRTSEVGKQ
UniProt Q8IDJ8, 1-583: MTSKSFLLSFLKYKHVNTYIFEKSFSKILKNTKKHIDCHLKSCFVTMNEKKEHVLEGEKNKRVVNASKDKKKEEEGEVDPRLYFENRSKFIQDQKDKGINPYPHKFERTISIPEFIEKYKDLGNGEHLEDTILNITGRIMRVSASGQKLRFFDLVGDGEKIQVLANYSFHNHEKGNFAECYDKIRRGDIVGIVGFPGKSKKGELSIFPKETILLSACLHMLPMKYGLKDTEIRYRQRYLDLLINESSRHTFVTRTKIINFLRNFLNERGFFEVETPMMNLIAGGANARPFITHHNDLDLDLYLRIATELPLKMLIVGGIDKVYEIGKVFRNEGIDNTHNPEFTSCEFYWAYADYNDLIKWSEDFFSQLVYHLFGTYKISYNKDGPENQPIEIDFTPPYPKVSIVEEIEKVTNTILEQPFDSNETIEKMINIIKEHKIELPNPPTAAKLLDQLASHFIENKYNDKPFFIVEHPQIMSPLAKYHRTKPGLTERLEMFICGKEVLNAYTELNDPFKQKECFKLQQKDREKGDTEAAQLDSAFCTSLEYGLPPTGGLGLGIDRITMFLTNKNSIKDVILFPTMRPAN

Results are given as percent effect. How 0% and 100% were set is not recorded. Most values in the screen are low, and negative values occur. Compounds were drawn at random from those tested, without regard to their results.

CN(Cc1nnc2n1CCC2)C(=O)NCCc1ccc2c(c1)OCO2 gave A: 1.487%; B: 12.5%; C: -3.999%; D: 6.165%. With CSc1ccc(S(=O)(=O)N2CCCCC2CCNC(C)=O)cc1 (centres unmarked) the screen gave A: 3.372%; B: -0.8208%; C: -27.7%; D: 5.568%. COc1c(C2CCCN2C(=O)c2ccnc(N(C)C)c2)c(C)nn1C (centres unmarked) gave A: -2.893%; B: -7.499%; C: -9.551%; D: 5.39%. For COCCN1CCOCC2(CCCN(Cc3ccc(C)o3)C2)C1 (centres unmarked) the result was A: 1.364%; B: 1.871%; C: -8.364%; D: 2.183%. Result for O=C1CC(c2ccccc2Br)c2sc(N3CCOCC3)nc2N1 (centres unmarked) was A: 2.576%; B: -27.21%; C: -14.23%; D: 60.07%.

Fc1cccc(Cl)c1Cn1ncnc1CSCCN1CCCC1 gave A: 0.9662%; B: -10.31%; C: -14.67%; D: 2.216%. CC(C)C(=O)N1CC[C@H]2N(C)CC[C@@]2(C(=O)N2CCOCC2)CC1 gave A: -5.087%; B: 8.656%; D: 3.058%. With COCCCNC(=O)C1(NC(=O)c2ccc3[nH]ncc3c2)CCCC1 the screen gave A: 1.56%; B: 5.466%; C: -12.75%; D: 2.488%. For COc1cccc(C(=O)N(C)Cc2ncc(C)c(OC)c2C)c1OC the result was A: 1.058%; B: -2.651%; C: -15.74%; D: 16.44%. Cn1c2c(c(=O)n1C)CN(C(=O)c1ccco1)CCC2 read A: 4.064%; B: -1.855%; C: 1.87%; D: -6.336%.

With CC(C(=O)NCc1ccnc(N(C)C)c1)n1cncn1 (centres unmarked) the screen gave A: 1.471%; B: -4.864%; C: -14.04%; D: 4.463%. CCC(C(=O)NC)N(c1cccc(C)c1)S(C)(=O)=O (centres unmarked) read A: 4.263%; B: -17.51%; C: -19.71%; D: 3.604%. With COc1ccc(N2CCC(NC(=O)c3ccc(C#N)cc3)CC2)cc1 the screen gave A: 1.968%; B: -0.07773%; C: -13.95%; D: 4.793%. With N#Cc1ccc(S(=O)(=O)Nc2ccc(N3CCOCC3)cn2)cc1 the screen gave A: -3.016%; B: -3.712%; C: -13.42%; D: 11.09%. CCOc1cccc2c1OCC(C(=O)NS(=O)(=O)c1cncc(Br)c1)=C2 gave A: 1.562%; B: 0.5256%; C: -13.68%; D: 2.08%.

With CN(Cc1csc(-c2ccccc2)n1)C(=O)CCn1ccccc1=O the screen gave A: -5.039%; B: -3.475%; C: 8.319%; D: 0.9799%. For CC(C)(C)c1cn(C[C@H]2CC3CCN2C[C@@H]3C(=O)N2CCOCC2)nn1 (some centres unmarked) the result was A: -2.959%; B: -8.372%; C: 8.158%; D: 1.009%. Result for CNc1oc(-c2ccc(OC)c(S(=O)(=O)N3CCCCC3)c2)nc1C#N was A: -4.623%; B: -3.232%; C: -18.1%; D: 6.146%. O=C(c1occc1CN1C(=O)Cc2ccccc21)N1CCCCCC1 gave A: 1.135%; B: -16.4%; C: -73.18%; D: 7.439%. For NC(=O)c1ccc(C2CN(Cc3ccc(F)cc3)CCO2)nc1 (centres unmarked) the result was A: 0.5789%; B: 9.839%; C: -8.432%; D: -1.23%.

For CCOC[C@@H]1CC[C@H]2[C@H](CCN2C(=O)c2ccncc2F)O1 the result was A: -10.07%; B: -8.785%; C: -11.49%; D: 0.8566%. With CCC(CC)(CN)NC(C)c1ccccc1 (centres unmarked) the screen gave A: -5.393%; B: -8.696%; C: -27.04%; D: -1.423%. Result for CNC(=O)CN1C(=O)CN(C(=O)COC)CCC(OC)c2ccccc21 (centres unmarked) was B: 9.298%; C: -36.13%; D: 4.325%. With O=C(c1ccno1)N1CCOC[C@H](Oc2ccccc2)C1 the screen gave A: -1.29%; B: -3.591%; C: -2.361%; D: 1.614%. O=c1[nH]c(NCCCO)nc2c1C1(CCCC1)Cc1ccccc1-2 gave A: 3.204%; B: -86.52%; C: 55.39%; D: 5.706%.

The first 3 entries again:

| compound | A | B | C | D |
|---|---|---|---|---|
| `CN(Cc1nnc2n1CCC2)C(=O)NCCc1ccc2c(c1)OCO2` | 1.487 | 12.5 | -3.999 | 6.165 |
| `CSc1ccc(S(=O)(=O)N2CCCCC2CCNC(C)=O)cc1` (centres unmarked) | 3.372 | -0.8208 | -27.7 | 5.568 |
| `COc1c(C2CCCN2C(=O)c2ccnc(N(C)C)c2)c(C)nn1C` (centres unmarked) | -2.893 | -7.499 | -9.551 | 5.39 |

Data taken from ChEMBL document CHEMBL3988442, “University of Dundee, Small-Polar-MMV Screening Library” (2021).